Experimental data from PubChem BioAssay AID588497 (NMMLSC, 2011).
Hit rate of the full screen: of about 360,000 compounds, about 780 (0.22%) were called active. Inconclusive results, whose numbers are uncertain, are shown with a selection of clear calls. No stated cut-off is given here; in the data, active means inhibition above about 35% (passing the limit was not always enough); inconclusive means no clear call, values can overlap the other calls.

Tested on: Botulinum neurotoxin type F light chain protease (Clostridium botulinum)
Assay: BoNT/F light chain protease inhibitors, primary screen, biochemical, flow cytometry, MLPCN library (AID 588497); further: plate controls were buffer without enzyme for full effect and enzyme alone for no effect
Settings: Multiplex microsphere protease cleavage assay, at 10 µM, hits give high values

Row | SMILES | inhibition
1 | CC(NC(=O)c1ccccc1[N+](=O)[O-])C1CC2CCC1C2 (stereo unspecified) | inconclusive: 9.9%
2 | Cc1ccc(OCC(=O)N/N=C/c2ccncc2)cc1C | inconclusive: -34.7%
3 | NC(=O)c1nsc(C(=O)N(c2ccc(F)cc2)C(C(=O)NCC2CCCO2)c2ccc3ncccc3c2)c1N (stereo unspecified) | inactive: -6%
4 | CCCCn1c(N)c(N(CCOC)C(=O)CCS(=O)(=O)c2ccc(Cl)cc2)c(=O)[nH]c1=O | inconclusive: 15.8%
5 | Cc1cccc(C(=O)NCc2ccco2)c1 | inconclusive: 19.6%
6 | COc1ccccc1CNC(=O)Cc1c[nH]c2ccccc12 | active: 35.7%
7 | Cc1cc(-c2ccccc2)nc(SCc2ccc(C(=O)O)cc2)n1 | inconclusive: -7.9%
8 | COC(=O)c1ccc(COC(=O)c2ccc(-n3cnnn3)cc2)o1 | inconclusive: 10.8%
9 | CC(Nc1c[nH]c(=O)[nH]c1=O)c1ccccc1 (stereo unspecified) | inconclusive: 4.4%
10 | COc1ccc(NC(=O)CN2CCN(C(=S)NC3CCCC3)CC2)cc1 | inconclusive: 177%
11 | CC(=O)Nc1ccc(N=Cc2c(O)n(Cc3ccco3)c(=O)[nH]c2=O)cc1 | inconclusive: -96.9%
12 | CCOC(=O)NC(c1cccc(Cl)c1)C1CCCCCC1=O (stereo unspecified) | inconclusive: 32.3%
13 | COc1ccc(CCNC(=O)C2CCCN(c3nc4ccccc4s3)C2)cc1OC (stereo unspecified) | inactive: 11.3%
14 | COc1ccc(C(=O)NC(C)c2ccc(-n3ccnc3)cc2)cc1[N+](=O)[O-] (stereo unspecified) | inactive: 12.3%
15 | CCOc1ccc(NC(=O)C(c2ccccn2)N(C(=O)CCl)c2ccc(F)cc2)cc1 (stereo unspecified) | inactive: -6%
16 | CC(=O)/C(N=Nc1ccc(-n2ccc(C(F)(F)F)n2)cc1)=C(\C)O | inconclusive: 1%
17 | CCc1nnc(NC(=O)c2ccc3c(c2)C(=O)N(CC)C3=O)s1 | inactive: -0.8%
18 | O=C(Nc1ncccc1O)C1CCN(S(=O)(=O)c2ccc3ccccc3c2)CC1 | inactive: -5.8%
19 | Cc1ccc(/C=N/NC(=O)Cc2ccc(Cl)cc2)c(O)c1 | inconclusive: -5.6%
20 | Cc1noc(C)c1NC(=O)NCCN1CCN(Cc2ccccc2)CC1 | inconclusive: 41.7%
21 | Cc1cc(SCC(=O)Nc2ccccc2)n2ncc(-c3ccccc3)c2n1 | inconclusive: 117%
22 | O=C(NCc1ccccn1)/C(=N/O)c1ccccc1 | inconclusive: -14.1%
23 | Cc1ccsc1C(=O)OC1CCOC1=O (stereo unspecified) | inconclusive: 8.9%

Row | SMILES | inhibition
24 | COc1ccc(OC)c(S(=O)(=O)Nc2cccc(O)c2)c1 | inconclusive: 24.8%
25 | CCOc1ccccc1NC(=O)c1cc2ccccc2oc1=O | active: 39.9%
26 | CCOC(=O)C1(CCOc2ccccc2)CCN(Cc2ccc(OC)cc2)CC1 | inconclusive: 3.9%
27 | CC(C)CCNC(=O)CN(C(=O)CCC(=O)Nc1ccccn1)c1ccc2c(c1)OCO2 | inconclusive: -56.3%
28 | O=C(c1ccco1)N1CCN(S(=O)(=O)c2cccc(C(F)(F)F)c2)CC1 | inconclusive: 12.4%
29 | CC(C)(C)CC(=O)Nc1cc2c3c(c1)CCC(=O)N3CCC2 | inactive: 12.6%
30 | COC(=O)c1ccc(-c2nc(CN3CCC(C(=O)N4CCOCC4)CC3)c(C)o2)cc1 | inactive: 5.7%
31 | CC(C)CCNC(=O)CN1N=C(c2ccc(Cl)cc2)CCC1=O | inconclusive: 21.7%
32 | Cc1cc(C(c2ccc(O)cc2)c2cc(C)c(O)cc2C)c(C)cc1O | inconclusive: 0.8%
33 | COc1ccccc1Oc1ncnc2sccc12 | active: 36.7%
34 | C=CCNc1nc(-c2ccccc2)c(C(=O)OCC)cc1C#N | inconclusive: -22.2%
35 | COc1cc2c(c(OC)c1)C(c1cccc(OC)c1OC)CC(=O)N2 (stereo unspecified) | inactive: -3.2%
36 | Cc1cccc(Nc2nc(N)c([N+](=O)[O-])c(NCCO)n2)c1 | inconclusive: 52.1%
37 | CCCc1nc2oc3c(Cl)ncnc3c2c2c1CCCC2 | inconclusive: -1%
38 | CCN(CC)c1ccc(N=Cc2c(O)n(Cc3ccco3)c(=O)[nH]c2=O)cc1 | inconclusive: -29.7%
39 | COc1cc(SC)ccc1C(=O)NCC1CCCCC1 | inactive: -23.8%
40 | Cn1c(=O)c(C(=O)NCCO)c(O)c2ccccc21 | inconclusive: -7.9%
41 | COc1cc2[nH]c(C(=O)Nc3ccc4c(c3)OCCO4)cc2c(OC)c1OC | inactive: -0.4%
42 | Nc1cc(SCc2ccc(Cl)cc2Cl)ncn1 | inactive: 5.6%
43 | O=C1C2C3C=CC(C4CC34)C2C(=O)N1CCCCN1CCN(c2ccc(F)cc2)CC1 (stereo unspecified) | inconclusive: -80%
44 | O=C(Nc1c[nH]c2c(Cl)cccc2c1=O)N1CCN(c2ccccn2)CC1 | inconclusive: 30.8%
45 | NC(=O)CN(c1ccc([N+](=O)[O-])cc1)S(=O)(=O)c1ccccc1 | inactive: -7.4%
46 | CC(=O)Nc1ccc(OCC(O)CN2CCN(c3ccc(F)cc3)CC2)cc1 (stereo unspecified) | inconclusive: 1.4%

Row | SMILES | inhibition
47 | COc1ccc(CCNC(=O)c2ccc(OC)c(OC)c2)cc1OC | inconclusive: -25.3%
48 | Cc1cccc(C(=O)Oc2ccc3ccc(O)cc3c2)c1 | inconclusive: 20.2%
49 | COc1ccc(C2(c3ccc(OC)cc3)NC(=O)N(CC(=O)NCC(C)c3ccccc3)C2=O)cc1 (stereo unspecified) | inactive: -0.3%
50 | CCNC(=O)NCCc1c[nH]c2ccc(Cl)cc12 | inconclusive: 3.4%
51 | C=CCn1c2ccccc2c2nnc(SCC(=O)O)nc21 | inconclusive: -20.9%
52 | O=C(NC(C(=O)N/N=C/c1cc([N+](=O)[O-])ccc1O)c1n[nH]c(=O)c2ccccc12)c1ccccc1 (stereo unspecified) | inactive: 2.6%
53 | Cc1nn(-c2ccccc2)c(C)c1/C=N/n1c(-c2ccccc2Br)n[nH]c1=S | inconclusive: 6.9%
54 | CCCCCCCCCCOC(=O)Cn1c(COc2ccc(Cl)cc2)[n+](C)c2ccccc21 | inconclusive: -43.8%
55 | O=S(=O)(c1ccc(Cl)cc1Br)N1CCCCC1 | inactive: -6.6%
56 | N#CCCn1cc(C(=O)N2CCCCC2)c(-c2ccc([N+](=O)[O-])cc2)n1 | inactive: -3.8%
57 | Clc1ccc2sc(C3CCNCC3)nc2c1 | inconclusive: -30%
58 | Cc1cc(=O)[nH]c2c1c(C)nn2C(C)(C)C | inconclusive: -11.5%
59 | CC(C)C(=O)NNC(=O)c1cc2sccc2s1 | inconclusive: -71.7%
60 | CC(=O)c1c(N2CCN(C)CC2)[nH]c(-c2ccccc2)nc1=S | inconclusive: -20.7%
61 | Nc1nccc(-c2cc(-c3ccc(Cl)cc3Cl)no2)n1 | inconclusive: 48.7%
62 | COc1cccc(NC(=O)c2c(C)cc(C)cc2CC(C)(C)C(=O)O)c1 | inconclusive: 22.2%
63 | O=C(C[n+]1cc(-c2ccc(Cl)cc2)n2c1CCC2)Nc1nc(-c2ccccc2)cs1 | inconclusive: -5%
64 | COc1ccc(CC(NC(C)=O)C(=O)NC2CCN(c3c4c(nc5ncnn35)CCC4)CC2)cc1 (stereo unspecified) | inconclusive: -13.7%
65 | CNC(=O)CSc1nc2cccnc2n1C1CCCCC1 | inconclusive: -5.8%
66 | O=c1[nH]c(=O)n(Cc2ccccc2)c(O)c1C=NCCCn1ccnc1 | inactive: -6.2%
67 | CCc1c(C)nc2ncnn2c1N1CCC(C(=O)N2CCN(c3ccc(F)cc3)CC2)CC1 | inactive: -5.6%
68 | COc1ccc(S(=O)(=O)N2CCOC23CCN(S(=O)(=O)c2cc(F)ccc2F)CC3)cc1 | inconclusive: 1.1%
69 | C=CCN(c1ccc(C(=O)NCCCn2ccnc2)cc1)S(C)(=O)=O | inconclusive: 19.1%

Quoted at random: five records from the list
Row | SMILES | inhibition
60 | CC(=O)c1c(N2CCN(C)CC2)[nH]c(-c2ccccc2)nc1=S | inconclusive: -20.7%
53 | Cc1nn(-c2ccccc2)c(C)c1/C=N/n1c(-c2ccccc2Br)n[nH]c1=S | inconclusive: 6.9%
56 | N#CCCn1cc(C(=O)N2CCCCC2)c(-c2ccc([N+](=O)[O-])cc2)n1 | inactive: -3.8%
47 | COc1ccc(CCNC(=O)c2ccc(OC)c(OC)c2)cc1OC | inconclusive: -25.3%
68 | COc1ccc(S(=O)(=O)N2CCOC23CCN(S(=O)(=O)c2cc(F)ccc2F)CC3)cc1 | inconclusive: 1.1%

2 consecutive entries already listed, quoted:
Row | SMILES | inhibition
64 | COc1ccc(CC(NC(C)=O)C(=O)NC2CCN(c3c4c(nc5ncnn35)CCC4)CC2)cc1 (stereo unspecified) | inconclusive: -13.7%
65 | CNC(=O)CSc1nc2cccnc2n1C1CCCCC1 | inconclusive: -5.8%

Continuation:

Row | SMILES | inhibition
70 | CCN(CC)C(=O)C1CCN(Cc2ccc(OCc3ccccc3)c(OC)c2)CC1 | inconclusive: 2.4%
71 | COc1cc(OC)cc(C(=O)N2CCN(Cc3cccc(F)c3)CC2)c1 | inconclusive: 30.6%
72 | Cc1cc(C(=O)NNC(=O)/C=C/c2ccco2)c(C)o1 | inactive: -2.8%
73 | CCCC(=O)Nc1ccc(S(=O)(=O)Nc2cc(OC)nc(OC)n2)cc1 | inconclusive: -0.9%
74 | Cc1cccc(OCCn2cccc2/C=C2/C(=O)NC(=O)N(Cc3ccco3)C2=O)c1 | inconclusive: -8%
75 | Cc1ccc(C(C)C)c(OCCNCc2ccccc2)c1 | inconclusive: -25%
76 | Cc1cc(=O)oc2cc(OCCSCCN3CCCCC3)ccc12 | inconclusive: 74.6%
77 | Cc1ccc(-c2nn(C)c(=O)c3ccccc23)cc1CN1CCCCC1 | inconclusive: 16.5%
78 | CCc1nc2ccc(C(=O)N3CCN(S(=O)(=O)CC)CC3)cn2c1N(C)Cc1cccs1 | inactive: -8.1%
79 | COc1cccc(NC(=O)c2cncs2)c1 | inconclusive: -16%
80 | O=P(c1ccccc1)(c1nc2ccccc2s1)N1CCOCC1 (stereo unspecified) | inconclusive: -5.6%
81 | COc1ccc(CCC(C)NCc2cccc(Br)c2)cc1 (stereo unspecified) | inconclusive: 31.7%
82 | COc1ccc(-c2c(C)nn3c(N)c(-c4ccccc4)cnc23)cc1OC | active: 40.1%
83 | COc1ccccc1N1CN(CCc2ccccc2)CNC1=S | inconclusive: 12.1%
84 | O=S(=O)(NC1=NCCCCC1)c1ccc(Cl)cc1Cl | inactive: 3.4%
85 | CCC1(C)Cc2ccccc2-c2nc3n(c(=O)c21)CC(C(=O)O)S3 (stereo unspecified) | inconclusive: -30.6%
86 | COc1ccc(CN2CN(c3ccc(Cl)cc3)C(=O)N(n3cnnc3)C2)cc1 | inactive: -3.7%
87 | CCCCCCC1CC(C)(/C(C)=N/NC(N)=O)OC1=O (stereo unspecified) | inactive: 6.4%
88 | O=C1N=c2ccccc2=C1c1sc(=S)n(Cc2ccccc2Cl)c1O | inconclusive: -23.5%
89 | COc1ccc(N2C(=O)CC(Sc3n[nH]c(-c4ccccc4)n3)C2=O)cc1 (stereo unspecified) | inconclusive: -24.6%
90 | COc1ccc(C2N(C(=O)N3CCOCC3)CCN2S(=O)(=O)c2ccc(C)cc2)cc1 (stereo unspecified) | inactive: -0.7%
91 | Cc1nc(S(=O)(=O)Nc2ccccc2C(=O)NCC2CC2)cn1C | inconclusive: 49.1%
